According to doi:10.1101/583179:
These are yes or no findings as the source states them, for the method shown. In cells and extracts the contact can be indirect. A yes stands for co-enrichment or nearness to the bait. Other partners may have been found.

By UniProt entry, the sequences of proteins in these tests, tags left out. Residues count along the entry.
UniProt P12956: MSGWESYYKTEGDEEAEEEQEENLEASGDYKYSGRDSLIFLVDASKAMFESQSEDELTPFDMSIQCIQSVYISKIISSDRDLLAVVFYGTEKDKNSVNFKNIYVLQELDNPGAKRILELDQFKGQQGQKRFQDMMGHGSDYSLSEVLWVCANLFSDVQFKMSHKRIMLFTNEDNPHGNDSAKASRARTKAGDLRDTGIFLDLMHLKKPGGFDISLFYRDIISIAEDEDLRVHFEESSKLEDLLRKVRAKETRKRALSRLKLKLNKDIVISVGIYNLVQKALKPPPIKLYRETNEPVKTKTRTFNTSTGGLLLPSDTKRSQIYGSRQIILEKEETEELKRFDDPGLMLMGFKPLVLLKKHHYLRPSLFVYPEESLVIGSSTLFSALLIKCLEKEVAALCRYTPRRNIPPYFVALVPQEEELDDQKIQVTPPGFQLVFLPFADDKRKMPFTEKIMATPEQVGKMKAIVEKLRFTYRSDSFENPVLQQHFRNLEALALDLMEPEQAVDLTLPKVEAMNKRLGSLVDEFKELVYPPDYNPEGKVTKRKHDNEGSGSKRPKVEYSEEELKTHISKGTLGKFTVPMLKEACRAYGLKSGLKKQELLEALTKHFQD
UniProt P02545, residues 1-646: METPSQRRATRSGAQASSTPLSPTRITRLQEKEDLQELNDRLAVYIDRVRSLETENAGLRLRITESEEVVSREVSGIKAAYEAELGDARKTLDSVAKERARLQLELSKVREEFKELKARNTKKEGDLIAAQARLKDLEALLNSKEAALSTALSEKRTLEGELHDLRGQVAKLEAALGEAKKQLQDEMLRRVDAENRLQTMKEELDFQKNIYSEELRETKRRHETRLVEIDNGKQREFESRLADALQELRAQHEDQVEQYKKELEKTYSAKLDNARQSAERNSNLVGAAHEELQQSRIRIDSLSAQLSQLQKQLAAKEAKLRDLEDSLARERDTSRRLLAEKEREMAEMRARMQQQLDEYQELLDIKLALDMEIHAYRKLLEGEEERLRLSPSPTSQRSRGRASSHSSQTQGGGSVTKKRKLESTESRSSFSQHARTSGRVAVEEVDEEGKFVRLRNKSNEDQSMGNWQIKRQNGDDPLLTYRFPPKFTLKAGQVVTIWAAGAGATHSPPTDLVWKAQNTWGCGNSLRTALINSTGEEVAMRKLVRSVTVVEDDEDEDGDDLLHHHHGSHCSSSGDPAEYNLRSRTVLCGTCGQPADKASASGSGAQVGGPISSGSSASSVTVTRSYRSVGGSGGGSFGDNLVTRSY

Target: GFP-KU70 (UniProt P12956)
Test: affinity purification with mass spectrometry

Substance: lamin-A (LMNA) (from UniProt P02545 1-646)
- binding: binds
